# Source: PubChem BioAssay AID493014 (National Center for Advancing Translational Sciences (NCATS), 2011)
# Some of the results follow. These are further read-outs of the screen, such as a control signal, another cell line or another target. No call is given for them. Most of these compounds were active or inconclusive in the main read-out, so they are no random draw. The note in brackets gives the kind of curve behind each potency; many fits are weak.
# Assay: qHTS Assay to Find Inhibitors of Chronic Active B-Cell Receptor Signaling
# Settings: ABC-DLBCL IkBa-CBG/CBR reporter, luminescence ratio (green luciferase fused to IkBa over red control in TMD8 lymphoma cells), 4 h
# Summary of the method: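 Doxycycline induced both beetle luciferases in TMD8 lymphoma cells; IKK-driven degradation limits the IkappaBalpha-fused green signal, while red luminescence normalises for cell number and nonspecific effects. Compounds tested up to 46 uM, 4 hrs.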
# [1] = measured here: CBR red luminescence, cell number
# [2] = measured here: IkBa-CBG green luminescence
Compound,AC50 [1],AC50 [2]
O=C(Cc1cc(=O)[nH][nH]1)N/N=C/C=C/c1ccccc1,"3.16 µM [rising, single point]",
O=C(c1ccc([N+](=O)[O-])s1)N1CCCc2ccccc21,"3.55 µM [rising, partial curve, poor fit]",
COc1cc(C2C(C(=O)c3ccc(C)o3)=C(O)C(=O)N2c2cc(C)on2)ccc1OCc1ccccc1 (stereo unspecified),"11.2 µM [rising, partial curve, poor fit]",
O=C(C1CCCN(S(=O)(=O)c2ccccc2)C1)N1CCCc2ccccc21 (stereo unspecified),"11.6 µM [falling, partial curve, poor fit]",
Cc1ccc(-n2c(SCC(=O)N3CC(=O)Nc4ccccc43)nc3ccccc3c2=O)cc1C,"6.51 µM [falling, partial curve, poor fit]",
O=C(CBr)c1ccc([N+](=O)[O-])c(CS(=O)(=O)c2ccc(Cl)cc2)c1,"35.5 µM [falling, single point]","35.5 µM [rising, partial curve, poor fit]"
O=C(c1ccco1)N1CCN(C2CC(=O)N(c3ccccc3)C2=O)CC1 (stereo unspecified),"18.4 µM [rising, partial curve]",
CCC(N=c1cc(-c2ccc(OC)cc2)oc2ccc(C)cc12)C(=O)O (stereo unspecified),"0.116 µM [rising, full curve, poor fit]",
CN(C(=O)c1ccc2c(c1)N(Cc1ccccc1F)C(=O)c1ccccc1S2)C1CCCCC1,"8.91 µM [falling, single point]",
CCOC(=O)c1c(C)oc2c1c(CN1CCN(C(=O)OCC)CC1)c(O)c1ccccc12,"29.1 µM [falling, single point]",
O=C(N/N=C/c1cn[nH]c1-c1ccccc1)c1ccco1,"15.8 µM [falling, single point]",
O=C(Nc1ccc(S(=O)(=O)N2CCCCCC2)cc1)c1[nH]ncc1[N+](=O)[O-],"7.08 µM [rising, partial curve, poor fit]",
Cc1[nH]c2ccccc2c1Cc1n[nH]c(=S)n1C,"18.4 µM [rising, partial curve, poor fit]",
CC(C)CCc1noc(CN2CCN(c3ccc(Cl)cn3)CC2)n1,"0.708 µM [rising, full curve, poor fit]",
COc1ccc2oc(C(=O)Nc3nc(-c4ccccn4)cs3)c(C)c2c1,"29.1 µM [rising, single point]",
Cc1ccc(NC(=O)[C@@H](CC(C)C)NC(=O)[C@@H]2Cc3ccccc3CN2)cc1,"0.355 µM [rising, full curve, poor fit]",
COc1cc(NC(=O)c2ccco2)c(OC)cc1NC(=O)CSc1ncc(-c2ccc(F)cc2)[nH]1,"5.62 µM [falling, single point]",
CC(=O)N1CCN(c2ccc(NC(=O)c3ccc4c(c3)OCO4)cc2)CC1,"7.08 µM [falling, partial curve]",
N#C/C(=C\c1ccc(Sc2nc3ccccc3[nH]2)o1)c1ccccc1,"20.6 µM [falling, single point]",
Cc1ccc(NC(=O)COC(=O)C2(CC(=O)NC(C)(C)C)CCCC2)cc1C,"6.51 µM [rising, single point]",
COC(=O)c1cccc(-n2c(C)cc(C=O)c2C)c1C,"29.1 µM [falling, single point]",

Compound,AC50 [1],AC50 [2]
COc1ccc(CNC(=O)COC(=O)c2cc(S(=O)(=O)N3CCOCC3)ccc2O)cc1OC,"29.1 µM [rising, single point]",
COc1cc(CNCc2cccs2)cc(Br)c1OC,"25.1 µM [rising, single point]",
Cc1ccc(S(=O)(=O)/C(C#N)=C/c2c(N3CCOCC3)nc3c(C)cccn3c2=O)cc1,"3.98 µM [falling, full curve, poor fit]",
O=C(CSc1ncn(-c2ccccc2)n1)Nc1nc2c(s1)CCCC2,"0.461 µM [rising, full curve, poor fit]",
Cc1ccc(-c2sc(C(=O)NN)c(C)c2C#N)cc1,"12.6 µM [falling, single point]",
FC(F)(F)c1cc(-c2ccccc2)nc2ncnn12,"0.13 µM [rising, full curve, poor fit]",
CC1S/C(=N/N=C2CCC(C(C)(C)C)CC2)NC1=O (stereo unspecified),"29.1 µM [rising, single point]",
O=C(c1cc(-c2ccc(Cl)c(Cl)c2)on1)N1CCN(c2ccccc2)CC1,"2.82 µM [falling, full curve]",
CCCOc1ccc(OC(=O)c2c(-c3ccccc3Cl)noc2C)cc1,"35.5 µM [rising, single point]",
CC1(C)Cc2c(C#N)c(SCCC#N)nc(N3CCOCC3)c2CS1,"0.0731 µM [rising, full curve, poor fit]",
CCOC(=O)c1sc(=S)n(-c2ccc(Cl)cc2)c1C,"29.1 µM [rising, single point]",
COc1cccc(OC)c1C(=O)Nc1cccc(S(=O)(=O)Nc2ccccc2Cl)c1,"29.1 µM [falling, single point]",
O=C(Nc1ccc(OC(F)(F)F)cc1)c1cnc2n(c1=O)CCS2,"0.82 µM [rising, full curve, poor fit]",
CCCC(=O)Nc1ccccc1NC(=O)CN(C)S(=O)(=O)c1ccccc1,"0.651 µM [falling, partial curve, poor fit]",
Cn1nnnc1SCc1ccc([N+](=O)[O-])cc1,"5.17 µM [rising, full curve, poor fit]",
O=C(Nc1ccc2oc(-c3ccncc3)nc2c1)c1ccccc1F,"22.4 µM [falling, single point]",
O=C(NCc1ccco1)C1CC(c2ccc(Cl)cc2)=NO1 (stereo unspecified),"5.01 µM [falling, partial curve, poor fit]",
CCN1C(=O)c2cccc3c(NC(=O)C4CCCCC4)ccc1c23,"0.562 µM [rising, full curve, poor fit]",
Cc1cc(Nc2cc(Cl)cc(Cl)c2)nc(N)n1,"14.1 µM [rising, partial curve, poor fit]","12.6 µM [falling, partial curve, poor fit]"
COC(=O)[C@@H]1CCCN1C(=O)c1cc(COc2cccc3cccnc23)on1,"2.82 µM [falling, full curve]",
Cc1occc1C(=O)/C(C#N)=C/c1ccc(O)c(Br)c1,"0.794 µM [falling, full curve, poor fit]",

# Sorted by length of the SMILES (rising): some entries from above.
Compound,AC50 [1],AC50 [2]
Cc1cc(Nc2cc(Cl)cc(Cl)c2)nc(N)n1,"14.1 µM [rising, partial curve, poor fit]","12.6 µM [falling, partial curve, poor fit]"
FC(F)(F)c1cc(-c2ccccc2)nc2ncnn12,"0.13 µM [rising, full curve, poor fit]",
CCOC(=O)c1sc(=S)n(-c2ccc(Cl)cc2)c1C,"29.1 µM [rising, single point]",

# Going on with the list:

Compound,AC50 [1],AC50 [2]
COc1cccc(-c2nnc(SCc3nc4ccccc4s3)n2C)c1,"14.6 µM [rising, single point]",
CC(Sc1n[nH]c(N)n1)c1nc2scc(-c3cccs3)c2c(=O)[nH]1 (stereo unspecified),"18.4 µM [rising, partial curve, poor fit]",
O=C(CCc1nc(-c2ccccc2)no1)NCc1ccco1,"0.631 µM [rising, full curve, poor fit]",
COc1ccccc1C(=O)NC(=S)Nc1cccnc1Cl,"10 µM [falling, partial curve, poor fit]",
CC(C)NC(=O)N(C)C[C@H]1Oc2ccc(NC(=O)C3CCCCC3)cc2C(=O)N([C@H](C)CO)C[C@@H]1C,"1.84 µM [rising, full curve]",
Cc1cccc(NC(=O)C2CCCN2S(=O)(=O)c2cccc3cccnc23)c1 (stereo unspecified),"1.46 µM [rising, partial curve, poor fit]",
Cc1ccc(OCC(=O)Nc2cc(S(=O)(=O)N3CCCCC3)ccc2N2CCN(C)CC2)c(C)c1,"1.84 µM [falling, partial curve, poor fit]",
COC(=O)c1[nH]c(C)c(/C(O)=C2\C(=O)C(=O)N(CCN3CCOCC3)C2c2ccccc2OC)c1C (stereo unspecified),"11.2 µM [rising, single point]",
S=C(NCCC1=CCCCC1)Nc1ccc(Cl)cc1,"7.31 µM [rising, partial curve]",
Cc1ccc(NC(=S)NNC(C)(C)C)cc1,"7.08 µM [falling, full curve]","5.62 µM [falling, full curve]"
CCCC#Cc1ccc2c(c1)COc1c3ccccc3nn1-2,"0.461 µM [rising, full curve, poor fit]",
CCc1ccc(-c2cc(C)no2)cc1S(=O)(=O)NCc1ccccc1OC,"35.5 µM [falling, single point]",
Cc1ccc(C)c(NC(=S)c2ccccn2)c1,"7.94 µM [rising, partial curve, poor fit]","5.62 µM [falling, single point]"
O=[N+]([O-])c1cccnc1S(=O)(=O)c1ccccc1,"17.8 µM [falling, partial curve, poor fit]",
Cc1nc(NC2=NCN(Cc3ccco3)CN2)nc2ccccc12,"3.55 µM [falling, partial curve, poor fit]",
Cc1cc(C)nc(SCc2csc(N)n2)n1,"7.08 µM [falling, partial curve, poor fit]",
Cc1ccc(CCNC(=O)C2CCC(=O)N2Cc2ccc(F)cc2)cc1 (stereo unspecified),"5.62 µM [rising, single point]",
Cc1ccc2cc(S(=O)(=O)NCCCN3CCOCC3)ccc2c1,"35.5 µM [rising, single point]",
Cc1cccc2sc(N(CCCN(C)C)C(=O)CN3C(=O)c4ccccc4C3=O)nc12,"35.5 µM [falling, single point]",
CNc1oc(-c2ccc(F)cc2)nc1S(=O)(=O)c1ccccc1,"1.58 µM [falling, full curve, poor fit]",

# Some values from the results shown:
# Value of CNc1oc(-c2ccc(F)cc2)nc1S(=O)(=O)c1ccccc1 under AC50 [1]: 1.58 µM [falling, full curve, poor fit]
# Value of Cc1ccc(CCNC(=O)C2CCC(=O)N2Cc2ccc(F)cc2)cc1 (stereo unspecified) under AC50 [1]: 5.62 µM [rising, single point]
